Results are given in words; binding and its absence hold for the method and conditions named. In cells and extracts the contact can be indirect. Here binding means that the protein was enriched with, or labelled near, the bait; the list need not be complete.
B1: IRF1 (protein, UniProt P10914 1-325)
chain: MPITRMRMRPWLEMQINSNQIPGLIWINKEEMIFQIPWKHAAKHGWDINKDACLFRSWAIHTGRYKAGEKEPDPKTWKANFRCAMNSLPDIEEVKDQSRNKGSSAVRVYRMLPPLTKNQRKERKSKSSRDAKSKAKRKSCGDSSPDTFSDGLSSSTLPDDHSSYTVPGYMQDLEVEQALTPALSPCAVSSTLPDWHIPVEVVPDSTSDLYNFQVSPMPSTSEATTDEDEEGKLPEDIMKLLEQSEWQPTNVDGKGYLLNEPGVQPTSVYGDFSCKEEPEIDSPGGDIGLSLQRVFTDLKNMDATWLDSLLTPVRLPSIQAIPCAP
B2: CEBPD (protein, UniProt P49716 1-269)
chain: MSAALFSLDGPARGAPWPAEPAPFYEPGRAGKPGRGAEPGALGEPGAAAPAMYDDESAIDFSAYIDSMAAVPTLELCHDELFADLFNSNHKAGGAGPLELLPGGPARPLGPGPAAPRLLKREPDWGDGDAPGSLLPAQVAACAQTVVSLAAAGQPTPPTSPEPPRSSPRQTPAPGPAREKSAGKRGPDRGSPEYRQRRERNNIAVRKSRDKAKRRNQEMQQKLVELSAENEKLHQRVEQLTRDLAGLRQFFKQLPSPPFLPAAGTADCR
B3: ZMIZ1 (protein, UniProt Q9ULJ6 1-1067)
chain: MNSMDRHIQQTNDRLQCIKQHLQNPANFHNAATELLDWCGDPRAFQRPFEQSLMGCLTVVSRVAAQQGFDLDLGYRLLAVCAANRDKFTPKSAALLSSWCEELGRLLLLRHQKSRQSDPPGKLPMQPPLSSMSSMKPTLSHSDGSFPYDSVPWQQNTNQPPGSLSVVTTVWGVTNTSQSQVLGNPMANANNPMNPGGNPMASGMTTSNPGLNSPQFAGQQQQFSAKAGPAQPYIQQSMYGRPNYPGSGGFGASYPGGPNAPAGMGIPPHTRPPADFTQPAAAAAAAAVAAAAATATATATATVAALQETQNKDINQYGPMGPTQAYNSQFMNQPGPRGPASMGGSMNPASMAAGMTPSGMSGPPMGMNQPRPPGISPFGTHGQRMPQQTYPGPRPQSLPIQNIKRPYPGEPNYGNQQYGPNSQFPTQPGQYPAPNPPRPLTSPNYPGQRMPSQPSSGQYPPPTVNMGQYYKPEQFNGQNNTFSGSSYSNYSQGNVNRPPRPVPVANYPHSPVPGNPTPPMTPGSSIPPYLSPSQDVKPPFPPDIKPNMSALPPPPANHNDELRLTFPVRDGVVLEPFRLEHNLAVSNHVFHLRPTVHQTLMWRSDLELQFKCYHHEDRQMNTNWPASVQVSVNATPLTIERGDNKTSHKPLHLKHVCQPGRNTIQITVTACCCSHLFVLQLVHRPSVRSVLQGLLKKRLLPAEHCITKIKRNFSSVAASSGNTTLNGEDGVEQTAIKVSLKCPITFRRIQLPARGHDCKHVQCFDLESYLQLNCERGTWRCPVCNKTALLEGLEVDQYMWGILNAIQHSEFEEVTIDPTCSWRPVPIKSDLHIKDDPDGIPSKRFKTMSPSQMIMPNVMEMIAALGPGPSPYPLPPPPGGTNSNDYSSQGNNYQGHGNFDFPHGNPGGTSMNDFMHGPPQLSHPPDMPNNMAALEKPLSHPMQETMPHAGSSDQPHPSIQQGLHVPHPSSQSGPPLHHSGAPPPPPSQPPRQPPQAAPSSHPHSDLTFNPSSALEGQAGAQGASDMPEPSLDLLPELTNPDELLSYLDPPDLPSNSNDDLLSLFENN
B4: ZMIZ2 (protein, UniProt Q8NF64 1-920)
chain: MNSMNPMKPALPPAPHGDGSFAYESVPWQQSATQPAGSLSVVTTVWGVGNATQSQVLGNPMGPAGSPSGSSMMPGVAGGSSALTSPQCLGQQAFAEGGANKGYVQQGVYSRGGYPGAPGFTTGYAGGPGGLGLPSHAARPSTDFTQAAAAAAVAAAAATATATATATVAALQEKQSQELSQYGAMGAGQSFNSQFLQHGGPRGPSVPAGMNPTGIGGVMGPSGLSPLAMNPTRAAGMTPLYAGQRLPQHGYPGPPQAQPLPRQGVKRTYSEVYPGQQYLQGGQYAPSTAQFAPSPGQPPAPSPSYPGHRLPLQQGMTQSLSVPGPTGLHYKPTEQFNGQGASFNGGSVSYSQPGLSGPTRSIPGYPSSPLPGNPTPPMTPSSSVPYMSPNQEVKSPFLPDLKPNLNSLHSSPSGSGPCDELRLTFPVRDGVVLEPFRLQHNLAVSNHVFQLRDSVYKTLIMRPDLELQFKCYHHEDRQMNTNWPASVQVSVNATPLTIERGDNKTSHKPLYLKHVCQPGRNTIQITVTACCCSHLFVLQLVHRPSVRSVLQGLLKKRLLPAEHCITKIKRNFSSGTIPGTPGPNGEDGVEQTAIKVSLKCPITFRRIQLPARGHDCRHIQCFDLESYLQLNCERGTWRCPVCNKTALLEGLEVDQYMLGILIYIQNSDYEEITIDPTCSWKPVPVKPDMHIKEEPDGPALKRCRTVSPAHVLMPSVMEMIAALGPGAAPFAPLQPPSVPAPSDYPGQGSSFLGPGTFPESFPPTTPSTPTLAEFTPGPPPISYQSDIPSSLLTSEKSTACLPSQMAPAGHLDPTHNPGTPGLHTSNLGAPPGPQLHHSNPPPASRQSLGQASLGPTGELAFSPATGVMGPPSMSGAGEAPEPALDLLPELTNPDELLSYLGPPDLPTNNNDDLLSLFENN
B5: zinc finger and BTB domain containing 5 (ZBTB5) (protein, UniProt O15062 1-677)
chain: MDFPGHFEQIFQQLNYQRLHGQLCDCVIVVGNRHFKAHRSVLAACSTHFRALFSVAEGDQTMNMIQLDSEVVTAEAFAALIDMMYTSTLMLGESNVMDVLLAASHLHLNSVVKACKHYLTTRTLPMSPPSERVQEQSARMQRSFMLQQLGLSIVSSALNSSQNGEEQPAPMSSSMRSNLDQRTPFPMRRLHKRKQSAEERARQRLRPSIDESAISDVTPENGPSGVHSREEFFSPDSLKIVDNPKADGMTDNQEDSAIMFDQSFGTQEDAQVPSQSDNSAGNMAQLSMASRATQVETSFDQEAAPEKSSFQCENPEVGLGEKEHMRVVVKSEPLSSPEPQDEVSDVTSQAEGSESVEVEGVVVSAEKIDLSPESSDRSFSDPQSSTDRVGDIHILEVTNNLEHKSTFSISNFLNKSRGNNFTANQNNDDNIPNTTSDCRLESEAPYLLSPEAGPAGGPSSAPGSHVENPFSEPADSHFVRPMQEVMGLPCVQTSGYQGGEQFGMDFSRSGLGLHSSFSRVMIGSPRGGASNFPYYRRIAPKMPVVTSVRSSQIPENSTSSQLMMNGATSSFENGHPSQPGPPQLTRASADVLSKCKKALSEHNVLVVEGARKYACKICCKTFLTLTDCKKHIRVHTGEKPYACLKCGKRFSQSSHLYKHSKTTCLRWQSSNLPSTLL
B6: Zinc finger protein GLI-similar 2 (GLIS2) (protein, UniProt Q9BZE0 1-524)
chain: MHSLDEPLDLKLSITKLRAAREKRERTLGVVRPRALHRELGLVDDSPTPGSPGSPPSGFLLNSKFPEKVEGRFSAAPLVDLSLSPPSGLDSPNGSSSLSPERQGNGDLPPVPSASDFQPLRYLDGVPSSFQFFLPLGSGGALHLPASSFLTPPKDKCLSPDLPLPKQLVCRWAKCNQLFELLQDLVDHVNDYHVKPEKDAGYCCHWEGCARHGRGFNARYKMLIHIRTHTNEKPHRCPTCSKSFSRLENLKIHNRSHTGEKPYVCPYEGCNKRYSNSSDRFKHTRTHYVDKPYYCKMPGCHKRYTDPSSLRKHIKAHGHFVSHEQQELLQLRPPPKPPLPAPDGGPYVSGAQIIIPNPAALFGGPGLPGLPLPLAPGPLDLSALACGNGGGSGGGGGMGPGLPGPVLPLNLAKNPLLPSPFGAGGLGLPVVSLLAGAAGGKAEGEKGRGSVPTRALGMEGHKTPLERTESSCSRPSPDGLPLLPGTVLDLSTGVNSAASSPEALAPGWVVIPPGSVLLKPAVVN
B7: S100A8 (protein, UniProt P05109 1-93)
chain: MLTELEKALNSIIDVYHKYSLIKGNFHAVYRDDLKKLLETECPQYIRKKGADVWFKELDINTDGAVNFQEFLILVIKMGVAAHKKSHEESHKE

Sequences of proteins named here, by UniProt entry; tags and fusion partners are left off.
UniProt Q04206: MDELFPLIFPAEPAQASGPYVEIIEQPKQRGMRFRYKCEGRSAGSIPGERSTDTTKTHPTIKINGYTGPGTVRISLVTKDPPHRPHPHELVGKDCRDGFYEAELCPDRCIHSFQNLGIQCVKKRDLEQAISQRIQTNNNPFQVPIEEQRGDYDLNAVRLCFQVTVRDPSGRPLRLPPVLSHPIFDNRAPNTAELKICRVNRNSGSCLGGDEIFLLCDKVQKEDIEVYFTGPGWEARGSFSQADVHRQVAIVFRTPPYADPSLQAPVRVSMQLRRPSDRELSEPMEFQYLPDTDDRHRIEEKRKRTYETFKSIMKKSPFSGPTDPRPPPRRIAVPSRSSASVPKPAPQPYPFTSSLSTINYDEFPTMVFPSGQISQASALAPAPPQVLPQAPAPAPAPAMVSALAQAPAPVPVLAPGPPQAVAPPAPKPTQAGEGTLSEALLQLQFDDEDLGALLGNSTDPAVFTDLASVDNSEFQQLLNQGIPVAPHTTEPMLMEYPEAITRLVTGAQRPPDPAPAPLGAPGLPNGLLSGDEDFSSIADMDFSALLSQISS
UniProt P51617: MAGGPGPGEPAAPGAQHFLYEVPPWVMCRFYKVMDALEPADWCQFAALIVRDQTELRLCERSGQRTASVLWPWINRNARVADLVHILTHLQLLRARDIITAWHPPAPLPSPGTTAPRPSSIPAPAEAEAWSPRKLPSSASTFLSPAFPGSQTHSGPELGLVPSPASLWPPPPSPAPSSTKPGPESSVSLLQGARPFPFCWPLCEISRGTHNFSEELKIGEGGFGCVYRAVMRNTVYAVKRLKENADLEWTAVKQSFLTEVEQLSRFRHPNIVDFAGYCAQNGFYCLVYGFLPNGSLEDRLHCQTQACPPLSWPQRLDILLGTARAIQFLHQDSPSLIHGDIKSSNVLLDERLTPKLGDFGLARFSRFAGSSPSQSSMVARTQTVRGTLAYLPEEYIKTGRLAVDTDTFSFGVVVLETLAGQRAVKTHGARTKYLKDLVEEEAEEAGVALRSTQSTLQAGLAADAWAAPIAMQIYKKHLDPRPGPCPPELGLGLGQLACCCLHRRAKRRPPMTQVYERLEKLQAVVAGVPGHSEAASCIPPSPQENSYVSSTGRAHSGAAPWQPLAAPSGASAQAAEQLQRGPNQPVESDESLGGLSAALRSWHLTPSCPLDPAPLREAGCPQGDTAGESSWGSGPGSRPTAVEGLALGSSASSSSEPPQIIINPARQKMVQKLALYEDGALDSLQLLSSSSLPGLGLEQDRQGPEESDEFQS
UniProt Q92782: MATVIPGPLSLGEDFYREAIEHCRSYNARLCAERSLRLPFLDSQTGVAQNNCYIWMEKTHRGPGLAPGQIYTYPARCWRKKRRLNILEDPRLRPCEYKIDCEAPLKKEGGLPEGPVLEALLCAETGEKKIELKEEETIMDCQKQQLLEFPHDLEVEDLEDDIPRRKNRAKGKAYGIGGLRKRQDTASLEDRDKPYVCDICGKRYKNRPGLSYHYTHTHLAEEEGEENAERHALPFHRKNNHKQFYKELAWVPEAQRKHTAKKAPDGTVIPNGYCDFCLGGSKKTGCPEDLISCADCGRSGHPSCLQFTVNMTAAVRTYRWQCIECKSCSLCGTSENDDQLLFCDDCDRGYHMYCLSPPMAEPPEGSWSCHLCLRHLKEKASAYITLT
UniProt Q92785: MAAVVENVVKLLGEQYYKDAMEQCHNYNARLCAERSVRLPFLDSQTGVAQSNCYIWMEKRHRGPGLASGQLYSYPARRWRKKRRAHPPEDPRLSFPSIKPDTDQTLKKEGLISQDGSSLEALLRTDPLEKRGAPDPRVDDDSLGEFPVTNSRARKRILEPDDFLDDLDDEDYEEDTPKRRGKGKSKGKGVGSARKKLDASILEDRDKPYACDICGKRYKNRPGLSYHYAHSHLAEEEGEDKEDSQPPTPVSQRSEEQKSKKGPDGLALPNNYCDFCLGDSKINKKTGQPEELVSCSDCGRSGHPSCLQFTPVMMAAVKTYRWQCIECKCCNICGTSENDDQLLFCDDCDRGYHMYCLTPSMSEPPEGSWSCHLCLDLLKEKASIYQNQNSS
UniProt P49715: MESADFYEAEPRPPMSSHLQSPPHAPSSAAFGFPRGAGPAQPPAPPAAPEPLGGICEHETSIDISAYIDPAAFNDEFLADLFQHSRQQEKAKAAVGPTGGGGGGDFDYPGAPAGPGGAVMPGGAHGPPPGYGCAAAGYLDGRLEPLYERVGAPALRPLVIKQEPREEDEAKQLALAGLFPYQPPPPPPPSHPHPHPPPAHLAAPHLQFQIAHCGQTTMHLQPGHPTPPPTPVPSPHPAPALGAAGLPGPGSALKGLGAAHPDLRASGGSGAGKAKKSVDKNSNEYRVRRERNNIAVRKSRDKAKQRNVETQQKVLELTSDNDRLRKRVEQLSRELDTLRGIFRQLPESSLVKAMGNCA
UniProt Q92830: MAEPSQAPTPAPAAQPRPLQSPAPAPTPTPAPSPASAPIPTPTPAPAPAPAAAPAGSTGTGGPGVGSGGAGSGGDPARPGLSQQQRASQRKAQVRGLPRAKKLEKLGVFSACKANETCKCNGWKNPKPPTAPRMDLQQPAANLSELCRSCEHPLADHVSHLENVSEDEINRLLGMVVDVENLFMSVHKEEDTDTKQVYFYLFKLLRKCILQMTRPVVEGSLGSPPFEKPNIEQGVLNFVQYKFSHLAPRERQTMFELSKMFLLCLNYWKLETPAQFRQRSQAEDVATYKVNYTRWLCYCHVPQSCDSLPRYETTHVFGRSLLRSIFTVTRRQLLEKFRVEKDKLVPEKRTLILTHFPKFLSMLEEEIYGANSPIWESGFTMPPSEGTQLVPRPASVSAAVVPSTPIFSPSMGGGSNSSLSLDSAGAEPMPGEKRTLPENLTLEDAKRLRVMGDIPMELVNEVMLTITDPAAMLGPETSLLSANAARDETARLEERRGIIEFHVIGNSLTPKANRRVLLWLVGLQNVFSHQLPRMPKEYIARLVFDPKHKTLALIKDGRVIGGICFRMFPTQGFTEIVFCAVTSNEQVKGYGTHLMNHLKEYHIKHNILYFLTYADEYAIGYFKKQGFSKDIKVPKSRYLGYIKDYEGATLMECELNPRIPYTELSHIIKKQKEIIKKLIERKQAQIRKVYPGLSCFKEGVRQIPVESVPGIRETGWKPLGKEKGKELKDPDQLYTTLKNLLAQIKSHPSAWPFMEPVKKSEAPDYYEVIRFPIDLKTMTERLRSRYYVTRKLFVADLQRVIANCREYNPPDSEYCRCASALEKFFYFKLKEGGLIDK
UniProt Q96RN5: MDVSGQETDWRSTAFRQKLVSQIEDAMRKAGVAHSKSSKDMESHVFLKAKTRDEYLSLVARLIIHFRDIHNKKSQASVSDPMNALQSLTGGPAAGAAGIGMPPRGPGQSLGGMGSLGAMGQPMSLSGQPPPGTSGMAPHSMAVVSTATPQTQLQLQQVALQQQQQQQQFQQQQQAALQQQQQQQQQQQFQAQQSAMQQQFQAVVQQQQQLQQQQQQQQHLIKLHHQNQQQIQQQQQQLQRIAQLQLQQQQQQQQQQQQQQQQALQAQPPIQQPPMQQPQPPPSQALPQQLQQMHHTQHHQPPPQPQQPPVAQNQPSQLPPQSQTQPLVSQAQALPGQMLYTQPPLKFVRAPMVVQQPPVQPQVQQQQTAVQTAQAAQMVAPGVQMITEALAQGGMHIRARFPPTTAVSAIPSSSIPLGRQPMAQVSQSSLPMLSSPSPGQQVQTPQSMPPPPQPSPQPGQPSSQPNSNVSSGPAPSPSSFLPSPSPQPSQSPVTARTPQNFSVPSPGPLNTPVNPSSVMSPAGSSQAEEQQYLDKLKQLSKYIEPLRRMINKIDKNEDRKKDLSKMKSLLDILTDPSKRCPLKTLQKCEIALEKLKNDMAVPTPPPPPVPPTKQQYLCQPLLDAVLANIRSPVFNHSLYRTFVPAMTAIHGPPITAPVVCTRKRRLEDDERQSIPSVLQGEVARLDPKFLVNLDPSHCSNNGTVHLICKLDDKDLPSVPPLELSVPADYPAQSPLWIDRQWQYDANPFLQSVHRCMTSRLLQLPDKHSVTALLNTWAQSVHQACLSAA
UniProt P19532: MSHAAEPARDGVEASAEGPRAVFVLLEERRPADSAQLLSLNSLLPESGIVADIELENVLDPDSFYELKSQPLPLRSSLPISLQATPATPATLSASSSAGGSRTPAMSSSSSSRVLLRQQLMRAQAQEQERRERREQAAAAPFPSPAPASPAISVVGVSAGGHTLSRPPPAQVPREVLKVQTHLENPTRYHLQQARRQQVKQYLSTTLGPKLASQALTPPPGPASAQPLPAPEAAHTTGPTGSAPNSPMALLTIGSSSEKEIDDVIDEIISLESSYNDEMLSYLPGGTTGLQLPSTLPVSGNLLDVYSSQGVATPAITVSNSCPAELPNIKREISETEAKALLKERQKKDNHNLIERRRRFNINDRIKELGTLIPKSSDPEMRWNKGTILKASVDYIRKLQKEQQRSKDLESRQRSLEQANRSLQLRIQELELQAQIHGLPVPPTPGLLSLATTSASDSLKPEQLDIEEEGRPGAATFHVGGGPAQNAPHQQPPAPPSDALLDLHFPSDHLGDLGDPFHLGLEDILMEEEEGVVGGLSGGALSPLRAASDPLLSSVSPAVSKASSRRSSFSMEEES

Biological target: p65(wt)-HA-miniTurbo (human) (UniProt Q04206)

binding, binds:
IRAK1 (from UniProt P51617 1-712)
DPF1 (from UniProt Q92782 1-387)
DPF2 (from UniProt Q92785 1-391)
CEBPA (from UniProt P49715 1-358)
KAT2A (from UniProt Q92830 1-837)
MED15 (from UniProt Q96RN5 1-788)
B1
B2

Biological target: p65(wt)-HA-miniTurbo (human) (UniProt Q04206)
Remark: another data set of the same source

binding, binds:
B3
B4

Biological target: p65(wt)-HA-miniTurbo (human) (UniProt Q04206)
Remark: another data set of the same source

binding, binds:
transcription factor E3 (TFE3) (from UniProt P19532 1-575)
B5
B6
B7
